Measurements: PubChem BioAssay AID504842 (National Center for Advancing Translational Sciences (NCATS), 2011)
Screen size: about 330,000 compounds; about 100 (0.03%) were called active. Inconclusive results, whose numbers are uncertain, are shown with a selection of clear calls. Calls follow the shape of the dose curve; as a rule, active = well fitted inhibition curve with a large enough effect; inconclusive = small, poorly fitted or top-dose-only effect; inactive = flat fitted curve, though single readings scatter. Potencies beside an inconclusive call are fits to weak or partial responses and may not hold up.

The compounds below were run on Chaperonin Mm-Cpn (Methanococcus maripaludis) (assay: Inhibitors of TCP-1 ring complex (TRiC) of Methanococcus maripaludis (MmCpn): qHTS). Settings: purified Mm-Cpn ATPase, ADP Transcreener TR-FRET; activity, negative = inhibition: at the top concentration.
Summary of the method: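 Measured: ADP formation by purified Mm-CPN. Conditions: 25 nM protein, 10 uM ATP, Tris pH 7.4 with Mg2+, K+ and DTT, 37°C for 30 min. Detection: Transcreener HTRF after 30 min at room temperature.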
% is scaled to controls: 0 for no effect and ±100 for the full control effect; potency is read from the fitted curve at half-maximal effect.
Also: nearly all actives have a fitted effect of over 80% in size.
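For Potency in this document: enzyme at 25 nM with ATP substrate at 10 µM during the reaction.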

SMILES	Potency	activity, negative = inhibition
Cc1nc2c(-c3ccc(F)cc3)c(C)nn2c(C)c1CCC(=O)NC(C)CCc1ccco1 (stereo not given)	inconclusive: 100 µM [inhibitor, single point]	–
CN1C(=O)/C(=C/c2ccccc2OCc2cccc(F)c2)N(C)C1=S	–	inactive: 3.05%
CCc1ccc(CNC(=O)CC2C(=O)NCCN2Cc2ccccc2F)nc1 (stereo not given)	–	inactive: -1.05%
Cc1ccc(NC(=O)CN2C(=O)S/C(=C\c3cccn3-c3cccc(C(=O)O)c3)C2=O)cc1C	inconclusive: 50.1 µM [inhibitor, single point]	–
O=C(CSc1ncnc2scc(-c3ccccc3)c12)N1CCN(Cc2ccc3c(c2)OCO3)CC1	inconclusive: 112 µM [inhibitor, partial curve, poor fit]	–
Cc1cc(C)nc(SCc2nc3nc(C)cc(C)n3c2Br)n1	–	inactive: -2.6%
O=C(Nc1nc2ccsc2c(=O)s1)c1ccc(Cl)cc1	inconclusive: 79.4 µM [inhibitor, single point]	–
Cc1ccc(C)c(-n2c3nc(=O)n(C)c(=O)c-3cc3ccccc32)c1	–	inactive: 1.05%
COc1ccc(CCNC(=O)c2ccc3c(c2)N(Cc2ccccc2)CCS3)cc1OC	inconclusive: 100 µM [inhibitor, single point]	–
Cc1c(O)c(=O)c2ccccc2n1C	inconclusive: 17.8 µM [inhibitor, single point]	–
CCS(=O)(=O)CCSc1nc2ccccc2o1	–	inactive: -2.5%
CC(=O)c1cccc([N+](=O)[O-])c1	–	inactive: 3.63%
CCn1ccnc1CN1CCCC(C(=O)c2ccc3cc(OC)ccc3c2)C1 (stereo not given)	inconclusive: 14.1 µM [inhibitor, single point]	–
COC(=O)c1sccc1NS(=O)(=O)c1ccc(OC)cc1	inconclusive: 14.1 µM [inhibitor, single point]	–
Cc1cccc(NC(=O)CSc2nc3c(oc4ccccc43)c(=O)n2-c2ccccc2)c1	inconclusive: 25.1 µM [inhibitor, single point]	–
COc1ccc2nc(N3C(=O)C(O)=C(C(=O)c4ccco4)C3c3ccc(C)o3)sc2c1 (stereo not given)	inconclusive: 562 µM [inhibitor, partial curve, poor fit]	–
O=C(/C=C/Nc1ccc(F)cc1Br)c1ccccc1	–	inactive: -0.928%
Cc1cc(-c2onc3ccc(Cl)cc23)ccc1O	–	inactive: -1.24%
CC(C)C(=O)N1CCN(c2ccc(NC(=O)c3ccc([N+](=O)[O-])o3)cc2Cl)CC1	–	inactive: -3.09%
COc1cccc(-c2sc3ccc(OC)cc3c2-c2ccc(OCCN3CCOCC3)cc2)c1	inconclusive: 15.8 µM [inhibitor, partial curve, poor fit]	–
CCCNC(=O)C1CC(=O)N(c2ccc(OCc3ccc(F)cc3)cc2)C1 (stereo not given)	inconclusive: 15.8 µM [inhibitor, single point]	–
COc1cccc(CN(C(=O)Cn2nnc(-c3ccccc3F)n2)C(C(=O)NC(C)(C)C)c2ccncc2)c1 (stereo not given)	inconclusive: 35.5 µM [inhibitor, single point]	–
O=C(CSc1ccc(-c2nc3ccccc3[nH]2)cn1)Nc1ccc(S(=O)(=O)NC2CC2)cc1	inconclusive: 100 µM [inhibitor, single point]	–
Cc1ccc(OCC(=O)Nc2ccccc2-c2ccccc2NC(=O)COc2ccc(C)cc2)cc1	inconclusive: 100 µM [inhibitor, partial curve, poor fit]	–

SMILES	Potency	activity, negative = inhibition
Cc1csc(NC(=O)c2cc3c(s2)CCCC3)n1	inconclusive: 100 µM [inhibitor, single point]	–
COCCNC(=O)C1CCN(S(=O)(=O)c2ccc3c(c2)OCCO3)CC1	inconclusive: 20 µM [inhibitor, single point]	–
CCN(CC)S(=O)(=O)c1cccc(C(=O)N/N=C(\C)c2cccs2)c1	inconclusive: 15.8 µM [inhibitor, single point]	–
Cc1nc(SCC(=O)N2CCN(C(=O)c3ccco3)CC2)c2c(C)c(C)sc2n1	–	inactive: -2.9%
Nc1ccc(NC(=O)c2ccccc2)c2c1C(=O)c1ccccc1C2=O	–	inactive: 0.91%
CCOc1cccc(/C(O)=C2/C(=O)C(=O)N(CCN3CCOCC3)C2c2ccncc2)c1 (stereo not given)	inconclusive: 79.4 µM [inhibitor, single point]	–
Cc1ccc(NC(=O)N2CCCC2c2cccs2)cc1 (stereo not given)	inconclusive: 200 µM [inhibitor, partial curve, poor fit]	–
COc1cccc(NC(=O)CN(C)C(=O)CCCc2c[nH]c3ccccc23)c1	inconclusive: 14.1 µM [inhibitor, single point]	–
Nc1ccc(O)c2c1C(=O)c1ccccc1C2=O	–	inactive: -26.1%
O=C(/C=C/c1ccccc1)N/C(=C\c1ccco1)C(=O)O	inconclusive: 100 µM [inhibitor, single point]	–
COc1nc(N)c(C#N)c(-c2ccc(N(C)CCC#N)cc2)c1C#N	inconclusive: 251 µM [inhibitor, partial curve, poor fit]	–
Cc1cc(C)cc(NC(=O)COC(=O)Cc2ccccc2F)c1	inconclusive: 79.4 µM [inhibitor, partial curve, poor fit]	–
O=C(CSc1nc2c(c(C(F)(F)F)n1)CCc1ccccc1-2)NCc1ccccc1	inconclusive: 79.4 µM [inhibitor, single point]	–
CC(C)=CCC[C@](C)(O[C@@H]1O[C@H](CO[C@@H]2OC[C@H](O[C@@H]3OC[C@@H](O)[C@H](O)[C@H]3O)[C@H](O)[C@H]2O)[C@@H](O)[C@H](O)[C@H]1O)C1CC[C@]2(C)C1[C@H](O)CC1[C@@]3(C)CC[C@H](O)C(C)(C)C3[C@@H](O)C[C@]12C (stereo not given in full)	inconclusive: 100 µM [inhibitor, single point]	–
O=C1CCNc2cc3ccccc3cc21	–	inactive: -24.4%
Cc1ccc(C)c(NC(=O)CSc2nc3nc(-c4cccs4)cc(C(F)(F)F)c3c(=O)[nH]2)c1	inconclusive: 63.1 µM [inhibitor, single point]	–
CC(C)c1ccc(/C=N/Nc2cc(N3CCOCC3)nc(N3CCOCC3)n2)cc1	–	inactive: -1.98%
COc1cccc(NC(=O)c2cnc(SC)nc2C)c1	inconclusive: 28.2 µM [inhibitor, single point]	–
Cc1ccc(S(=O)(=O)NC(=O)Nc2nccs2)cc1	inconclusive: 89.1 µM [inhibitor, single point]	–
Cc1ccc(C(=O)NCC(=O)OCC(=O)Nc2cc(S(=O)(=O)N3CCOCC3)ccc2Cl)s1	–	inactive: -2.32%
CCC(C)NCCOCCOc1ccc(Cl)c2ccccc12 (stereo not given)	–	inactive: 3.2%
CCCCCCC(=O)Nc1nc(C)c(-c2csc(Nc3cc(Cl)ccc3OC)n2)s1	inconclusive: 100 µM [inhibitor, single point]	–
Cc1ccc(C(=O)N/N=C/C=C/c2ccccc2)o1	–	inactive: 0.27%
CCOC(=O)N1CCN(C(=O)c2ccc3c(=O)n(Cc4ccccc4OC)c(=S)[nH]c3c2)CC1	–	inactive: -5.76%

Part of the list above, in CSV form:
SMILES,Potency,"activity, negative = inhibition"
Cc1csc(NC(=O)c2cc3c(s2)CCCC3)n1,"inconclusive: 100 µM [inhibitor, single point]",–
CCN(CC)S(=O)(=O)c1cccc(C(=O)N/N=C(\C)c2cccs2)c1,"inconclusive: 15.8 µM [inhibitor, single point]",–
Nc1ccc(NC(=O)c2ccccc2)c2c1C(=O)c1ccccc1C2=O,–,inactive: 0.91%
CCOc1cccc(/C(O)=C2/C(=O)C(=O)N(CCN3CCOCC3)C2c2ccncc2)c1 (stereo not given),"inconclusive: 79.4 µM [inhibitor, single point]",–
O=C(/C=C/c1ccccc1)N/C(=C\c1ccco1)C(=O)O,"inconclusive: 100 µM [inhibitor, single point]",–
COc1nc(N)c(C#N)c(-c2ccc(N(C)CCC#N)cc2)c1C#N,"inconclusive: 251 µM [inhibitor, partial curve, poor fit]",–
Cc1cc(C)cc(NC(=O)COC(=O)Cc2ccccc2F)c1,"inconclusive: 79.4 µM [inhibitor, partial curve, poor fit]",–
CC(C)=CCC[C@](C)(O[C@@H]1O[C@H](CO[C@@H]2OC[C@H](O[C@@H]3OC[C@@H](O)[C@H](O)[C@H]3O)[C@H](O)[C@H]2O)[C@@H](O)[C@H](O)[C@H]1O)C1CC[C@]2(C)C1[C@H](O)CC1[C@@]3(C)CC[C@H](O)C(C)(C)C3[C@@H](O)C[C@]12C (stereo not given in full),"inconclusive: 100 µM [inhibitor, single point]",–
O=C1CCNc2cc3ccccc3cc21,–,inactive: -24.4%
COc1cccc(NC(=O)c2cnc(SC)nc2C)c1,"inconclusive: 28.2 µM [inhibitor, single point]",–
CCC(C)NCCOCCOc1ccc(Cl)c2ccccc12 (stereo not given),–,inactive: 3.2%
Cc1ccc(C(=O)N/N=C/C=C/c2ccccc2)o1,–,inactive: 0.27%
CCOC(=O)N1CCN(C(=O)c2ccc3c(=O)n(Cc4ccccc4OC)c(=S)[nH]c3c2)CC1,–,inactive: -5.76%

(cont.)

SMILES	Potency	activity, negative = inhibition
COc1ccc(-c2noc(C(C)n3nc(C)c([N+](=O)[O-])c3C)n2)cc1OC (stereo not given)	–	inactive: -0.747%
COc1cc(-c2cc(C(=O)Nc3ccc(S(=O)(=O)NCc4ccco4)cc3)c3ccccc3n2)cc(OC)c1OC	inconclusive: 126 µM [inhibitor, partial curve, poor fit]	–
Cc1ccc(C(C)C)cc1S(=O)(=O)Nc1ccncc1	inconclusive: 22.4 µM [inhibitor, single point]	–
Nc1c(O)ccc2c1C(=O)c1ccccc1C2=O	inconclusive: 112 µM [inhibitor, single point]	–
CC(C)c1ccc(O)c(N)c1	–	inactive: 4.79%
COc1ccc(NC(=O)/C=C/c2ccco2)cn1	–	inactive: 1.57%
Nc1cc2nsnc2cc1Br	inconclusive: 25.1 µM [inhibitor, partial curve, poor fit]	–
CCOc1ccc(-c2csc(NC(=O)c3ccc(S(=O)(=O)N4CCc5ccccc5C4)cc3)n2)cc1	inconclusive: 100 µM [inhibitor, single point]	–
COc1ccc(OC)c(NC(=S)N2CCN(C(=O)C3CCCO3)CC2)c1 (stereo not given)	inconclusive: 28.2 µM [inhibitor, single point]	–
O=C(CSc1nnnn1C1CCCC1)Nc1ccccc1F	inconclusive: 20 µM [inhibitor, single point]	–
Cc1ccc(-c2cc(-c3ccccc3)nc(Cl)n2)cc1	–	inactive: -1.15%
CCOC(=O)c1nnc(-c2cccs2)nc1Oc1ccccc1C(=O)OC	–	inactive: 0.134%
CN(C)c1ccc(NC(=O)COC(=O)c2cc(Cl)ccc2[N+](=O)[O-])cc1	–	inactive: 1.94%
CCC(=O)Oc1ccc(-c2nc(-c3cccnc3)no2)cc1	inconclusive: 100 µM [inhibitor, single point]	–
CCCN(C(=O)Cc1coc2cc(OC)ccc12)C1CCS(=O)(=O)C1 (stereo not given)	–	inactive: 1.87%
CCOC(=O)C1CCCN(Cc2ccc(OC)c(OCc3ccccc3)c2)C1 (stereo not given)	–	inactive: 0.559%
COc1cccc(N2CCN(C(=O)c3ccc(CSc4nc5ccncc5[nH]4)cc3)CC2)c1	–	inactive: 1.49%
O=C(O)c1cc(-c2ccccc2)n(-c2ccccc2C(=O)O)n1	inconclusive: 22.4 µM [inhibitor, single point]	–
COc1cccc(CN(CC(=O)NC2CCCC2)C(=O)c2csnn2)c1	inconclusive: 17.8 µM [inhibitor, single point]	–
CC(C)(C)c1ccc(Oc2ncccc2NC(=O)c2cccs2)cc1	inconclusive: 56.2 µM [inhibitor, single point]	–
CCCCN(C(=O)c1ccc(-c2ccc(Cl)cc2)o1)c1c(N)n(CC(C)C)c(=O)[nH]c1=O	inconclusive: 89.1 µM [inhibitor, single point]	–
O=C(c1cnccn1)N1CCN(S(=O)(=O)c2ccc3ccccc3c2)CC1	inconclusive: 316 µM [inhibitor, partial curve, poor fit]	–
